Assay results published in the supplement of paper PMC3334620.
Over roughly 33,000 sequences, “E-score (-0.5 to 0.5)” has its median near -0.0014; the highest 2% begin near 0.25. This is one part of the list.

Each sequence was assayed against T1, Cad1 (UniProt P24813) (assay: PBM E-score (8-mer binding enrichment) (E-score (-0.5 to 0.5)); higher = stronger / more preferred TF binding). Conditions: protein concentration: 100 nM; construct: GST-full length.
T1 sequence: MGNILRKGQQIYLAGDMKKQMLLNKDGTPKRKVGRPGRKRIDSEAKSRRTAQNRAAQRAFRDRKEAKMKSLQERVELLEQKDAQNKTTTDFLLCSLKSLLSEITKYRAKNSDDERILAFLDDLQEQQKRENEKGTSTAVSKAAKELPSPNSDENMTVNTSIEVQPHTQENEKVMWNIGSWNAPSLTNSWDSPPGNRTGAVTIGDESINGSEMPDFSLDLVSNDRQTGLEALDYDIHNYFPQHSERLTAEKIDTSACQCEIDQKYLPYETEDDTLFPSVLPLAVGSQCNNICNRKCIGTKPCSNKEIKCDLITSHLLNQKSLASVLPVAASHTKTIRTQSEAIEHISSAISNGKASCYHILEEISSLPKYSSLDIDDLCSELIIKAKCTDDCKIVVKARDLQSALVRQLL
How it was run: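 Detection of bound protein used fluorescent anti-GST, with scans normalised by masliner. The proteins were GST-tagged yeast transcription factors applied at about 100-200 nM to universal all-10-mer Agilent arrays made double-stranded by primer extension. Each ungapped eight-base word, pooled with its reverse complement, was scored with an E-score from the Universal PBM Analysis Suite.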

Sequence | PBM E-score
GGTGTACA | -0.029
CTAAAGTA | -0.234
AACGCCTC | -0.217
CCAGTAAC | 0.0826
CAGGGGCG | -0.0592
ATCGCAAG | 0.0727
CGCTTATC | 0.103
ACCCGTAG | -0.367
ACAACCTC | -0.135
TTCATGAA | 0.181
GCGTGTGA | 0.0809
AACGACCT | -0.0376
CTGTGTGA | 0.111
CATTGCGG | -0.124
GACGAACC | 0.0741
ATGGTAGC | -0.0481
ACTTGTAC | -0.0789
CCTCTTCC | -0.235
AAGGTACC | 0.0111
GTTACAAA | 0.223
CCAGCGCA | -0.0267
AGGGGCTC | -0.212
TACCCTCA | -0.188
GCCCAGTA | -0.141
TAAGCGTA | -0.0691

Sequence | PBM E-score
CGCGGTTC | 0.0904
GAGGCACA | -0.207
AGGAGGCG | -0.229
GGCCGTTA | 0.0668
GGGGGGCA | -0.471
GTCGTTTA | 0.00937
ACCCCAGT | -0.109
AGATGATG | 0.0867
CAGGTAGA | -0.0922
CTTCCATA | -0.244
CAGGAAGG | -0.286
TCGGTAGA | 0.176
CAGTCTAA | 0.0662
TGACCCCA | -0.18
GGCTAGCC | -0.382
AGTTAACG | 0.0767
ACGGGCTG | 0.0123
AGAGGGAG | -0.107
AAAATCTT | 0.0179
CTTAGCTC | -0.151
GGGCATTA | -0.152
AATTACCT | 0.0297
CCTTCCAC | -0.193
GCTCACTA | 0.146
ACCGGCAC | 0.175

Taken from above (5 entries):
Sequence | PBM E-score
CGCGGTTC | 0.0904
GAGGCACA | -0.207
AGGAGGCG | -0.229
GGCCGTTA | 0.0668
GGGGGGCA | -0.471

Further records

Sequence | PBM E-score
ACAGTGAG | 0.0189
CTTAGACC | 0.0241
GGAAACAA | -0.0691
ACGAATAC | 0.132
AATACGGC | 0.153
AGTTGTGA | 0.14
CCAAACAA | 0.0792
ACACCATG | -0.187
AAGCCTCG | -0.00547
GATCAGAC | -0.0211
CCGCCCGC | -0.0183
ATTATTGC | 0.176
CCTTGTAA | 0.049
AACAATCC | 0.155
CAATCAAA | 0.019
CCCCTGTA | -0.107
CGGCTGTC | -0.113
ACACTAAT | 0.141
CCCGGCTC | -0.191
CGAGCGTC | -0.016
CCTTCGAA | 0.136
AGACTCTA | -0.191
TAGATTAA | 0.135
AAGGCGAC | -0.103
CGTTGTGC | -0.119

Sequence | PBM E-score
CTATCGGC | -0.0279
CAGCTGAC | 0.182
CACACTCG | 0.0692
ACGGCAGT | -0.15
ATCCACAA | 0.165
CACGTCGC | -0.0804
GCAGGAGC | -0.195
GAGATATA | 0.086
ATTCCTTC | 0.105
AAGTTGCA | 0.0503
GAAGCAAA | -0.031
AAGCGGCA | 0.108
CAGTAGGC | -0.0171
AACCCAAG | -0.0408
CGGGGCGA | 0.0369
AGTACGAT | -0.0359
CTCGAGAC | 0.0617
ATCAACTC | 0.0517
CCGCGCGA | 0.295
GTTATATA | 0.232
TGTACGAA | 0.0881
ATTATAAT | 0.227
CTTGTGGC | -0.211
ACAATCAG | 0.0284
GGGTCTTA | -0.131

An excerpt of these results, field by field.
CACACTCG
  PBM E-score: 0.0692
ACGGCAGT
  PBM E-score: -0.15
ATCCACAA
  PBM E-score: 0.165
CACGTCGC
  PBM E-score: -0.0804

The results go on.

Sequence | PBM E-score
CACGGCAC | -0.119
CACTTAAC | 0.00927
ACCTCCGT | -0.164
GTACGTTA | 0.177
CTTATACC | 0.0668
AGTCTAAA | -0.166
CCAGAAAC | -0.0733
ACCAACTC | -0.122
ACGCCAGT | -0.226
GTTTCGTA | 0.211
GGGGCCCC | -0.151
CTTCCGAC | -0.0209
CCAAGGCG | 0.0157
ATAAGTAC | 0.0334
ACAGAGGC | -0.0774
GACACCGC | 0.0655
CCGCAGAC | -0.0466
CGTTTTTC | 0.0438
ATTAAGGG | -0.271
AAGGATAT | 0.16
GAGTCAAC | -0.14
TGAGTGCA | 0.0231
AAGAAGGA | -0.2
AATTAGGA | 0.0377
AACACCCG | 0.147

Sequence | PBM E-score
AATTTTTA | 0.178
ACACCGCA | 0.102
CCCGCAAG | -0.172
GCCTGCGA | -0.159
CGCGGACA | 0.171
CGTGTTTA | 0.0059
CGCTTTAC | 0.039
GCCAAGGA | -0.109
AACGGGGA | 0.00344
GCGGGAGA | -0.248
CTGTTAGC | -0.105
GCAATTGA | 0.118
TCATCCAA | 0.0958
AATGAACT | -0.00805
CAGTATAG | 0.0621
AAAGATGA | 0.213
CACACGGC | -0.0732
ACTAAATC | 0.191
CGCGCGCC | 0.254
CAAAACGC | 0.0728
CAATCACC | -0.062
AAGATGAC | 0.162
AGATTGAG | -0.0136
GGAAGTGA | -0.0839
AGCCCGCG | -0.0273

Sequence | PBM E-score
ATTTTTTA | 0.162
AATGTATG | 0.058
GGGAAACA | -0.00119
CCGAACGA | 0.158
CATCCATG | -0.0474
GACCGGAA | -0.0251
GATCGCCA | -0.00992
TGTCGGAA | -0.0766
AAAGCGTG | -0.00012
AGGGCGAA | -0.104
CAAACGAC | 0.126
CCAGCCCA | -0.329
CCTGAGGC | -0.262
GCGTGTCA | 0.237
GCCCGGGC | -0.197
ACTCCAGA | -0.056
CTTGAAAC | 0.151
CACTCTTA | 0.0388
GACACCTC | -0.00441
ATGCGCAC | 0.14
CTTCGACA | -0.0705
AGAACGAT | 0.0277
